# Test results taken from the supplement of paper PMC10663445.
# Counter-ions that a name gives are not always drawn. The list shows a part of the results. Repeats are few or missing, and single values can be far off.
# Tested on: hsa-miR-132-3p
# Experiment: miR-132-3p level in NGN2-iNs after compound treatment (TMM-normalised, ComBat batch-corrected) (batch-corrected normalised expression (arbitrary units)); higher = higher miR-132-3p expression
# Conditions: 10 µM; 24 h; human iPSC-derived NGN2 neurons (BR43)
row,Structure (SMILES),miR-132-3p level in NGN2-iNs
1,OCc1ccc(-c2ccc(-c3ccc(CO)s3)o2)s1,0.435
2,O=c1c(-c2ccc(O)cc2)coc2cc(O)cc(O)c12 [Genistein],0.351
3,Cc1cc(N2CCOCC2)ccc1Nc1nc(NC2CCCCC2)c2[nH]cnc2n1,-0.347
4,O=C(O)c1ccc(Nc2ncc3c(n2)-c2ccc(Cl)cc2C(c2c(F)cccc2F)=NC3)cc1,-0.278
5,COc1cc2c(cc1OC)-c1cc3ccc(OC)c(OC)c3c[n+]1CC2 [Palmatine chloride],-0.987
6,CNC(=C[N+](=O)[O-])NCCSCc1ccc(CN(C)C)o1 [Ranitidine Hydrochloride],-0.835
7,N#C[C@@H]1CCCN1C(=O)CNC12CC3CC(CC(O)(C3)C1)C2 [Vildagliptin (LAF-237)],1.33
8,CC(C)C[C@H](NC(=O)CNC(=O)c1cc(Cl)ccc1Cl)B(O)O [Ixazomib (MLN2238)],-1.13
9,CNC[C@H](O)c1cccc(O)c1 [Phenylephrine HCl],-0.682
10,CCOc1ccn(-c2ccc(F)cc2)c(=O)c1C(=O)Nc1ccc(Oc2ccnc(N)c2Cl)c(F)c1,-1.06
11,Cc1nc(Nc2n[nH]c3c2CN(C(=O)N[C@H](CN(C)C)c2ccccc2)C3(C)C)c2sccc2n1,0.545
12,NC(=O)c1noc([C@H](CCCC2CCCCC2)CC(=O)NO)n1,-0.835
13,Cc1cccc(-c2[nH]c(C(C)(C)C)nc2-c2ccc3nccnc3c2)n1,0.163
14,Cc1cnc(Nc2ccc(N3CCN(C)CC3)cc2)nc1Nc1cccc(S(=O)(=O)NC(C)(C)C)c1,-0.0745
15,O=C1NC(=O)/C(=C/c2ccc(-c3ccc(F)cc3O)o2)S1,-0.378
16,CC(C)CCN1c2nc(Nc3cc(F)c(O)c(F)c3)ncc2N(C)C(=O)C1C (stereo not given),-0.683
17,C[C@]12C=CC(=O)C=C1CC[C@@H]1[C@@H]2[C@@H](O)C[C@@]2(C)[C@H]1CC[C@]2(O)C(=O)CO [Prednisolone],-0.159
18,O=c1ncn2nc(Sc3ccc(F)cc3F)ccc2c1-c1c(Cl)cccc1Cl,0.635
19,"O=c1[nH]cc(F)c(=O)[nH]1 [Fluorouracil (5-Fluoracil, 5-FU)]",0.000427
20,CS(=O)(=O)c1ccc([C@@H](O)[C@@H](CO)NC(=O)C(Cl)Cl)cc1 [Thiamphenicol],0.557
21,CC(=O)Oc1cc(C(F)(F)F)ccc1C(=O)O [Triflusal],-0.289
22,N=c1ccn2c(n1)O[C@H]1[C@H](O)[C@@H](CO)O[C@H]12 [Cyclocytidine HCl],0.991
23,CNC(=O)c1ccc2cc([C@@]3(O)CCn4cncc43)ccc2c1 [Orteronel],0.0484
24,C[C@@H](c1ncncc1F)[C@](O)(Cn1cncn1)c1ccc(F)cc1F [Voriconazole],0.574
25,Cc1c(NC(=O)c2ccc(C(C)(C)C)cc2)cccc1-c1cn(C)c(=O)c(Nc2ccc(C(=O)N3CCOCC3)cc2)n1,-1.43
26,O=C(O)Cc1ccccc1Nc1c(Cl)cccc1Cl [Diclofenac Sodium],0.104
27,O=C(O)Cc1ccccc1Nc1c(Cl)cccc1Cl [Diclofenac Potassium],1.15

# Individual results from the entries so far:
# For miR-132-3p level in NGN2-iNs, COc1cc2c(cc1OC)-c1cc3ccc(OC)c(OC)c3c[n+]1CC2 [Palmatine chloride] is entered as -0.987
# For miR-132-3p level in NGN2-iNs, O=c1ncn2nc(Sc3ccc(F)cc3F)ccc2c1-c1c(Cl)cccc1Cl is entered as 0.635

# Further entries:

row,Structure (SMILES),miR-132-3p level in NGN2-iNs
1,O=C(O)Cc1ccccc1Nc1c(Cl)cccc1Cl [Diclofenac Diethylamine],-1.08
2,COc1cc(N2CCN(C)CC2)ccc1Nc1nccc(-c2cn(C)c3cnccc23)n1,-0.419
3,CC(C)NC[C@H](O)COc1ccc(CCOCC2CC2)cc1 [Levobetaxolol HCl],0.0538
4,COC(=O)C1=C(C)NC(C)=C(C(=O)OC)C1c1ccccc1[N+](=O)[O-] [Nifedipine],-1.19
5,COC(=O)N1CCN(Cc2cccc(NC(=O)Nc3ccc(C)nc3)c2F)CC1,0.369
6,Nc1ccc(O)c(C(=O)O)c1 [Mesalamine],-1.07
7,Nc1ccc(S(=O)(=O)Nc2ncccn2)cc1 [Sulfadiazine],-0.0709
8,CCCC(C)NC(=O)c1ccc(Cl)c(Cl)c1 (stereo not given),-0.82
9,C#C[C@]1(OC(C)=O)CC[C@H]2[C@@H]3CCC4=C[C@@H](OC(C)=O)CC[C@@H]4[C@H]3CC[C@@]21C [Ethynodiol diacetate],-0.829
10,CC(C)[C@H](C(=O)Nc1ccc(C(=O)NO)cc1)c1ccccc1,-0.635
11,C#C[C@]1(O)CC[C@H]2[C@@H]3CCC4=CC(=O)CC[C@@H]4[C@H]3CC[C@@]21C [Norethindrone],0.779
12,C=CCc1cc(OC)c(O)c(C(=O)NCCO)c1 [Alibendol],-0.662
13,CCc1ccc(CCOc2ccc(CC3SC(=O)NC3=O)cc2)nc1 (stereo not given) [Pioglitazone HCl],-1.05
14,CCc1ccc(CCOc2ccc(CC3SC(=O)NC3=O)cc2)nc1 (stereo not given) [Pioglitazone],-0.0945
15,CNC[C@@H](O)c1ccc(O)c(O)c1 [L-Adrenaline],0.87
16,Cc1ccc(N(CC2=NCCN2)c2cccc(O)c2)cc1 [Phentolamine Mesylate],1.92
17,Cc1c(Cl)cccc1Nc1ccccc1C(=O)O [Tolfenamic Acid],0.865
18,COc1cc(F)c(C(C)C)cc1-c1ccc(C(F)(F)F)cc1CN1C(=O)O[C@H](c2cc(C(F)(F)F)cc(C(F)(F)F)c2)[C@@H]1C [Anacetrapib (MK-0859)],0.0126
19,CO[C@H]1/C=C/O[C@@]2(C)Oc3c(C)c(O)c4c(O)c(c(/C=N/N5CCN(C)CC5)c(O)c4c3C2=O)NC(=O)/C(C)=C\C=C\[C@H](C)[C@H](O)[C@@H](C)[C@@H](O)[C@@H](C)[C@H](OC(C)=O)[C@@H]1C [Rifampin],-0.763
20,CC1=C(/C=C/C(C)=C/C=C/C(C)=C/C=C/C=C(C)/C=C/C=C(C)/C=C/C2=C(C)CCCC2(C)C)C(C)(C)CCC1 [Beta Carotene],0.72
21,CC[C@H]1OC(=O)[C@H](C)[C@@H](O[C@H]2C[C@@](C)(OC)[C@@H](O)[C@H](C)O2)[C@H](C)[C@@H](O[C@@H]2O[C@H](C)C[C@H](N(C)C)[C@H]2O)[C@](C)(O)C[C@@H](C)C(=O)[C@H](C)[C@@H](O)[C@]1(C)O [Erythromycin],-0.159
22,O=C(c1cc(Cc2n[nH]c(=O)c3ccccc23)ccc1F)N1CCN(C(=O)C2CC2)CC1,0.133
23,O=C(O)CCCc1c[nH]c2ccccc12 [3-Indolebutyric acid (IBA)],-0.514
24,O=C1c2ccccc2C(=O)C1c1ccccc1 [Phenindione],1.3
25,O=C(O)CCc1nc(-c2ccccc2)c(-c2ccccc2)o1 [Oxaprozin],0.666
26,c1ccc(CC2=NCCN2)cc1 [Tolazoline HCl],-0.664
27,CC(C)(Oc1ccc(CCNC(=O)c2ccc(Cl)cc2)cc1)C(=O)O [Bezafibrate],0.00261

row,Structure (SMILES),miR-132-3p level in NGN2-iNs
1,CC(C)C[C@H](NC(=O)[C@H](Cc1ccccc1)NC(=O)c1cnccn1)B(O)O [Bortezomib (PS-341)],-0.125
2,COc1ccc(CC(C)NCC(O)c2ccc(O)c(NC=O)c2)cc1 (stereo not given) [Formoterol Hemifumarate],-1.02
3,O=C1C(c2c(O)[nH]c3ccccc23)=Nc2ccccc21 [Indirubin],-1.16
4,CS(=O)(=O)c1ccc(C(=O)Nc2ccc(Cl)c(-c3ccccn3)c2)c(Cl)c1 [Vismodegib (GDC-0449)],0.0607
5,CN1CCN(S(=O)(=O)c2ccc(-c3cnc(N)c(C(=O)Nc4cccnc4)n3)cc2)CC1,1.27
6,COc1ccc(-c2coc3cc(O)ccc3c2=O)cc1 [Formononetin],-0.632
7,CNc1nc(-c2ccc3c(N)n[nH]c3c2)cc(N2C[C@@H](C(=O)NC3CCCCC3)CC[C@H]2C)n1,1.8
8,Nc1ccc2ncnc(NCCc3ccc(Oc4ccccc4)cc3)c2c1,-0.199
9,CCOC(=O)N1CCC(=C2c3ccc(Cl)cc3CCc3cccnc32)CC1 [Loratadine],0.229
10,Nc1nc(F)nc2c1ncn2[C@@H]1O[C@H](COP(=O)(O)O)[C@@H](O)[C@@H]1O [Fludarabine Phosphate],-0.162
11,COC(=O)[C@H](c1ccccc1Cl)N1CCc2sccc2C1 [Clopidogrel],0.012
12,COCCCC/C(=N\OCCN)c1ccc(C(F)(F)F)cc1 [Fluvoxamine maleate],-1.24
13,C[C@H](N[C@@H](CCc1ccccc1)C(=O)O)C(=O)N1CCC[C@H]1C(=O)O [Enalaprilat Dihydrate],1.11
14,O=C(COc1cccc2c(=O)[nH]ccc12)c1ccccc1,-0.26
15,CC(C)c1nc(N(C)S(C)(=O)=O)nc(-c2ccc(F)cc2)c1/C=C/[C@@H](O)C[C@@H](O)CC(=O)O [Rosuvastatin Calcium],0.00394
16,O=C(O)C1=C[C@@H](O)[C@@H](O)[C@H](O)C1 [Shikimic Acid],-0.421
17,C=C(C)[C@@H]1CC[C@]2(C(=O)O)CC[C@]3(C)[C@H](CC[C@@H]4[C@@]5(C)CC[C@H](O)C(C)(C)[C@@H]5CC[C@]43C)[C@@H]12 [Betulinic acid],1.29
18,c1ccc2c(c1)CCCC2C1=NCCN1 (stereo not given) [Tetrahydrozoline HCl],0.283
19,CC(=O)OCC(=O)NCCCOc1cccc(CN2CCCCC2)c1 [Roxatidine Acetate HCl],-0.361
20,CCn1cc(C(=O)O)c(=O)c2cc(F)c(N3CCNCC3)nc21 [Enoxacin],0.46
21,OC[C@@H](O)[C@@H](O)[C@H](O)[C@H](O)CO [D-Mannitol],-0.38
22,O=C(O)C(Cc1ccccc1[N+](=O)[O-])=NNc1nc(-c2ccc(Cl)c(Cl)c2)cs1,-1.61
23,O=C1NC(=O)C(c2ccccc2[N+](=O)[O-])=C1Nc1ccc(O)c(Cl)c1,1.31
24,O=C1NC(=O)/C(=C/c2ccc3nccc(-c4ccncc4)c3c2)S1,0.0148
25,CCCc1ncc(C[n+]2ccccc2C)c(N)n1 [Amprolium HCl],0.0993
26,CC(C(=O)O)c1cccc(Oc2ccccc2)c1 (stereo not given) [Fenoprofen Calcium],1.71
